Taken from: PubChem BioAssay AID1259306 (Sanger Institute, 2017)
Assay: 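Kinase-wide siRNA screen for partners of targeted drugs in colorectal cancer cells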 (primary screen). Cells: human SNU-C5 colorectal cancer cells. Knock-down reagent: siRNA pool against human genes. Treatment: DMSO vehicle alone, or one anchor drug: BYL719 at 1 µM, cetuximab at 5 µg/ml or trametinib at 10 nM, given 24 h into the assay. Measurement: 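Viability versus non-targeting pool averaged across replicates, given as fraction and robust z-score, and synergy scores for BYL719, cetuximab or trametinib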. Reading the numbers: robust z-score, knock-down alone and viability, knock-down alone: higher = more viable cells; synergy score with BYL719: higher = stronger synthetic lethality with BYL719; synergy score with cetuximab: higher = stronger synthetic lethality with cetuximab; synergy score with trametinib: higher = stronger synthetic lethality with trametinib. Rule for the call: 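Called essential when the robust z-score for knock-down alone is below -3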. Calls: active = essential (knock-down alone); inactive = no change alone.
This is one part, drawn at random, of 794 deposited reagents. In the full data, 11 (1.4%) were called active. 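Calls reflect knock-down alone; synergy scores play no part, so knock-downs synergising with a drug can be called no change.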 Viability is capped at 1. Not stated in the record: the amount of reagent, the time to read-out.

| gene knocked down | robust z-score, knock-down alone | viability, knock-down alone | synergy score with BYL719 | synergy score with cetuximab | synergy score with trametinib | Call |
| --- | --- | --- | --- | --- | --- | --- |
| MAP3K20 (mitogen-activated protein kinase kinase kinase 20) | 0.989 | 1 | 0 | 0.121 | -0.0395 | inactive |
| MAP3K8 (mitogen-activated protein kinase kinase kinase 8) | -0.835 | 0.749 | 0.0842 | -0.0881 | -0.00531 | inactive |
| EIF2AK1 (eukaryotic translation initiation factor 2 alpha kinase 1) | 0.989 | 1 | 0.0489 | 0.185 | 0.0796 | inactive |
| COQ8B (coenzyme Q8B) | -1.04 | 0.72 | -0.214 | -0.28 | -0.223 | inactive |
| ANKK1 (ankyrin repeat and kinase domain containing 1) | -0.212 | 0.834 | -0.079 | 0.116 | -0.104 | inactive |
| STRADA (STE20 related adaptor alpha) | -0.483 | 0.797 | -0.0377 | 0.0674 | -0.153 | inactive |
| PRKAR1B (protein kinase cAMP-dependent type I regulatory subunit beta) | -0.523 | 0.792 | 0.1 | -0.129 | -0.125 | inactive |
| CDADC1 (cytidine and dCMP deaminase domain containing 1) | -0.259 | 0.828 | -0.133 | -0.0938 | -0.0388 | inactive |
| PIK3R2 (phosphoinositide-3-kinase regulatory subunit 2) | 0.0857 | 0.876 | 0.0213 | -0.046 | -0.161 | inactive |
| KSR2 (kinase suppressor of ras 2) | -2.75 | 0.484 | -0.128 | -0.0612 | -0.238 | inactive |
| PIP5K1C (phosphatidylinositol-4-phosphate 5-kinase type 1 gamma) | -0.521 | 0.792 | 0.236 | -0.0308 | -0.00573 | inactive |
| PACSIN1 (protein kinase C and casein kinase substrate in neurons 1) | 0.318 | 0.908 | 0.0341 | -0.00102 | -0.0139 | inactive |
| LCK (LCK proto-oncogene, Src family tyrosine kinase) | 0.888 | 0.986 | 0.285 | -0.0139 | -0.0209 | inactive |
| SRC (SRC proto-oncogene, non-receptor tyrosine kinase) | -0.321 | 0.82 | -0.18 | -0.18 | -0.287 | inactive |
| JAK1 (Janus kinase 1) | -0.461 | 0.8 | -0.189 | -0.2 | -0.194 | inactive |
| BMPR1B (bone morphogenetic protein receptor type 1B) | -0.545 | 0.789 | -0.0781 | -0.139 | -0.235 | inactive |
| SOX9 (SRY-box transcription factor 9) | -1.77 | 0.62 | -0.0153 | -0.0358 | -0.165 | inactive |
| SMAD2 (SMAD family member 2) | -2.65 | 0.498 | 0.0104 | 0.0908 | -0.121 | inactive |
| DSTYK (dual serine/threonine and tyrosine protein kinase) | 0.109 | 0.879 | 0.0799 | -0.121 | -0.0891 | inactive |
| DGKD (diacylglycerol kinase delta) | 0.633 | 0.951 | 0.0764 | 0.0614 | -0.117 | inactive |

As entered above:
PRKAR1B (protein kinase cAMP-dependent type I regulatory subunit beta), synergy score with BYL719: 0.1
DSTYK (dual serine/threonine and tyrosine protein kinase), robust z-score, knock-down alone: 0.109
